Laboratory results published in article PMC6713354, “Structural and biochemical studies of an NB-ARC domain from a plant NLR immune receptor” (PLoS ONE, 2019).
No constants are given. Whether binding was seen depends on the method and setting. One block for each binder: values may come before it.

Legend:
Test in all cases: SEC; analytical gel filtration, Superdex S75 10/300 GL, 20 mM HEPES pH 7.5, 150 mM NaCl; protein diluted to 50 μM, 100 μL loaded; standard curve from a low-molecular weight calibration kit; both purified
[1] = biological target: NRC1 NB-ARC domain, wild-type, expressed in E. coli (tomato) (UniProt A1X877)
[2] = biological target: NRC1 NB-ARC^D268N (tomato) (UniProt A1X877)
[3] = biological target: NRC1 NB-ARC domain, wild-type, expressed in Sf9 cells (tomato) (UniProt A1X877)

binding [1]: no binding (tested: 50 μM)
B1: NRC1 NB-ARC domain, wild-type, expressed in E. coli (domain or fragment, UniProt A1X877 150-494)
chain: PVVEEDDVVGFDDEAQTVIDRLLEGSGDLEVIPVVGMPGLGKTTLATKIFKHPKIEYEFFTRLWLYVSQSYKTRELYLNIISKFTGNTKHCRDMSEKDLALKVQEILEEGGKYLIVLDDVWSTDAWDRIKIAFPKNDKGNRVLLTTRDHRVARYCNRSPHDLKFLTDEESWILLEKRAFHKAKCLPELETNGKSIARKCKGLPLAIVVIAGALIGKSKTIKEWEQVDQSVGEHFINRDQPNSCDKLVRMSYDVLPYDWKACFLYFGTFPRGYLIPARKLIRLWIAEGFIQYRGDLSPECKAEEYLNELVNRNLVMVMQRTVDGQIKTCRVHDMLYEFCWQEATTE

binding [2]: no binding (tested: 50 μM)
B2: NRC1 NB-ARC^D268N (domain or fragment, UniProt A1X877 150-494)
chain: PVVEEDDVVGFDDEAQTVIDRLLEGSGDLEVIPVVGMPGLGKTTLATKIFKHPKIEYEFFTRLWLYVSQSYKTRELYLNIISKFTGNTKHCRDMSEKDLALKVQEILEEGGKYLIVLDNVWSTDAWDRIKIAFPKNDKGNRVLLTTRDHRVARYCNRSPHDLKFLTDEESWILLEKRAFHKAKCLPELETNGKSIARKCKGLPLAIVVIAGALIGKSKTIKEWEQVDQSVGEHFINRDQPNSCDKLVRMSYDVLPYDWKACFLYFGTFPRGYLIPARKLIRLWIAEGFIQYRGDLSPECKAEEYLNELVNRNLVMVMQRTVDGQIKTCRVHDMLYEFCWQEATTE

binding [3]: no binding (tested: 50 μM)
B3: NRC1 NB-ARC domain, wild-type, expressed in Sf9 cells (domain or fragment, UniProt A1X877 150-494)
chain: PVVEEDDVVGFDDEAQTVIDRLLEGSGDLEVIPVVGMPGLGKTTLATKIFKHPKIEYEFFTRLWLYVSQSYKTRELYLNIISKFTGNTKHCRDMSEKDLALKVQEILEEGGKYLIVLDDVWSTDAWDRIKIAFPKNDKGNRVLLTTRDHRVARYCNRSPHDLKFLTDEESWILLEKRAFHKAKCLPELETNGKSIARKCKGLPLAIVVIAGALIGKSKTIKEWEQVDQSVGEHFINRDQPNSCDKLVRMSYDVLPYDWKACFLYFGTFPRGYLIPARKLIRLWIAEGFIQYRGDLSPECKAEEYLNELVNRNLVMVMQRTVDGQIKTCRVHDMLYEFCWQEATTE
